Assay results from US10273283B2, “Modified integrin polypeptides, modified integrin polypeptide dimers, and uses thereof” (THE CHILDREN'S MEDICAL CENTER CORPORATION, priority 2014, dated 2019).
Read-outs that look alike come from different tables or passages of the source. At least one peptide structure holds a part that was inferred or is arguable (an end, a ring closure or a residue). Peptide text beside a SMILES is read from it. * marks the point of attachment. FITC = O=C1OC2(c3ccc(O)cc3Oc3cc(O)ccc32)c2ccc(NC(=S)*)cc21

Amino acid sequences for entries named in this document (tags omitted). Residues count along the entry.
UniProt P06756, 31-624 M430C: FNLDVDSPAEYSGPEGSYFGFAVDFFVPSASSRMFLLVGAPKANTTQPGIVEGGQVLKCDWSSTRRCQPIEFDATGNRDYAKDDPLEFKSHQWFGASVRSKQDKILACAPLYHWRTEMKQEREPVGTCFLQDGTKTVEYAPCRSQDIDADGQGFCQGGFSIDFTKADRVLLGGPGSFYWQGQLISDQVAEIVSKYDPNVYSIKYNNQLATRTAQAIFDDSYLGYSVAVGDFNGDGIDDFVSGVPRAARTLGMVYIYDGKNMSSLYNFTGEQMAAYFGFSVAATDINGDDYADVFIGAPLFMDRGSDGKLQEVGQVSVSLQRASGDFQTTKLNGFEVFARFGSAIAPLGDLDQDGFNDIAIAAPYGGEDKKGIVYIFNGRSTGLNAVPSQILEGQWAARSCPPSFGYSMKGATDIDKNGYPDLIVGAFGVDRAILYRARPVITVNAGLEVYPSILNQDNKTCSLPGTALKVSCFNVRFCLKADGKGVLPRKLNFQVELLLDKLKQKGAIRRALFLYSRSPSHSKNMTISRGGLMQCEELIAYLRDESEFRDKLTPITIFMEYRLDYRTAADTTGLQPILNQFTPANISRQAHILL
UniProt P18564, 18-491 I287C: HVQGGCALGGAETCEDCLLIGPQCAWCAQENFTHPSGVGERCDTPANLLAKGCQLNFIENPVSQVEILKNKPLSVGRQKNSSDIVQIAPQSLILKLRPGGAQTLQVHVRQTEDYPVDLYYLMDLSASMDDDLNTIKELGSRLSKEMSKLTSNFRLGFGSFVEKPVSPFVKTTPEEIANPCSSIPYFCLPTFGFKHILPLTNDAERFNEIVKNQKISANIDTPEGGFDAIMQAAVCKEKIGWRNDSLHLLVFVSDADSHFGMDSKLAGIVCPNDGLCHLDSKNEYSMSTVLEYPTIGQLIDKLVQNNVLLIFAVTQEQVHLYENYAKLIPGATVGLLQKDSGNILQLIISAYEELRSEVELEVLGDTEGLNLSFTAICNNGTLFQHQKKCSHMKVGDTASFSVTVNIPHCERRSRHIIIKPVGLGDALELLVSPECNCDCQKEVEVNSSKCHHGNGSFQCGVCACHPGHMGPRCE

Target: T1, integrin αvβ6 headpiece (Homo sapiens, UniProt P06756+P18564, I287C/M430C)
T1 construct: The αv headpiece (residues 1-594) with M400C mutation was followed by a 3C protease site; β6 headpiece residues 1-474 with I270C or β3 headpiece residues 1-472 with Q267C were followed by the 3C site; 3C protease site (C, cleaved yes); ACID coiled-coil (C, cleaved yes); Strep-II tag (C, cleaved yes); His tag (C, cleaved yes); 3C site (C, cleaved yes); BASE coiled-coil (C, cleaved yes); made in house; host or cells: HEK293s Gnt I- cells
Experiment: Saturation binding of fluorescence probe to αvβ6 headpiece by fluorescence anisotropy
Details: read-out: Saturation binding affinity of probe to αvβ6
Description: A fluorescence probe for integrin αvβ6, the sequence of which is FITC-[…] (SEQ ID NO: 68), was synthesized. […] By competition binding assay, the affinities of Different Ligands were Measured.
Fluorescence anisotropy was in 150 mM NaCl, 1 mM Mg^2+/Ca^2+, 20 mM HEPES, pH 7.4 or buffer at indicated pH with 5 nM fluorescence probe (FITC-pro-TGF-β3 peptide, FITC-[…] (SEQ ID NO: 68)). Binding affinities were calculated as described in Ref. 23. In saturation binding assays, the anisotropy of the fluorescence probe was measured while αvβ6 headpiece (starting at 2.67 μM) or αvβ3 headpiece (starting at 75 μM) was serially diluted in 3-fold decrements. Competition binding assays used 200 nM αvβ6 or 4 μM αvβ3 headpiece, 5 nM of fluorescence probe, and competing peptide serially diluted in 3-fold decrement from 500 μM to 0.5 nM.

Molecule CC(C)C[C@H](NC(=O)[C@H](CCCNC(=N)N)NC(=O)CNC(=O)[C@H](CC(C)C)NC(=O)[C@H](CC(=O)O)NC(=O)CNC(=O)[C@H](CCCNC(=N)N)NC(=O)CNC(=S)Nc1ccc2c(c1)C(=O)OC21c2ccc(O)cc2Oc2cc(O)ccc21)C(=O)O [FITC-GRGDLGRL (SEQ ID NO: 68)] ({FITC}-GRGDLGRL-OH; C-terminus assumed) has a Kd (physiological buffer containing 1 mM Mg2+/Ca2+) of 100 nM and a Kd (physiological buffer containing Mn2+/Ca2+) of 10 nM.
